Primary screen of a compound library

The chains behind the UniProt entries cited, without tags or fusion partners.
UniProt P9WNZ1, whole entry: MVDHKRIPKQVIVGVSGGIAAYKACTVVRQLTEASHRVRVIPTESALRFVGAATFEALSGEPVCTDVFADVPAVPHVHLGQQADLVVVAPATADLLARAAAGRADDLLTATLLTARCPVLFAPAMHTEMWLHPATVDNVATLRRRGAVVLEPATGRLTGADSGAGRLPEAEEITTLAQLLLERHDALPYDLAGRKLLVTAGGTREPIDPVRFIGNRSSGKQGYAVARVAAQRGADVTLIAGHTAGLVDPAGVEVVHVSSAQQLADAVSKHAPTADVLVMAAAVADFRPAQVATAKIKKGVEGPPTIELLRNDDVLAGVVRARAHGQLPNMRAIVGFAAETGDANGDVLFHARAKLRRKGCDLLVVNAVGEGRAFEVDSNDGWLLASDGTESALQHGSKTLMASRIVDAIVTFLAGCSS
UniProt P9WFT3, whole entry: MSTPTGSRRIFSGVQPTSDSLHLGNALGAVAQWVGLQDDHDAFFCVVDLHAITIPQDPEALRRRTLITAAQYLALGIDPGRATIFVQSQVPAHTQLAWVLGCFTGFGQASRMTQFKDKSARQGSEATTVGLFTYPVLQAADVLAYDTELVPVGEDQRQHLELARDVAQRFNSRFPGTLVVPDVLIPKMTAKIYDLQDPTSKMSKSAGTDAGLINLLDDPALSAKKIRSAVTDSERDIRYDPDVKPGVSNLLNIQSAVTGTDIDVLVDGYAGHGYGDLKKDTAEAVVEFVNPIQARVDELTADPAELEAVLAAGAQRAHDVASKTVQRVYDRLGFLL

From ChEMBL document CHEMBL3988442, “University of Dundee, Small-Polar-MMV Screening Library” (2021).

CoaBC: 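Coenzyme A biosynthesis protein CoaBC, Mycobacterium tuberculosis (UniProt P9WNZ1). Enzyme assay of CoaBC with a phosphate dye (Biomol Green) read at 650 nm. Compounds at 30 µM. Higher reads as stronger inhibition, judged from the few compounds that gave an IC50. Most strong results did not repeat in a second test. Size under these conditions: about 67,000 compounds, about 40 of them at 50% or above in at least one test.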
MtTrpRS: 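Enzyme assay of tryptophanyl-tRNA synthetase; the read-out is not stated. Target: Tryptophan-tRNA ligase, Mycobacterium tuberculosis (UniProt P9WFT3). Tested at 10 µM. Higher most likely means stronger inhibition; the record gives no direction and few retests gave an IC50. About 65,000 compounds were tested under these conditions; 0.098% (about 64) showed 50% or more at least once.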

Each number is a percent effect as filed.
How 0% and 100% were set is not recorded. Most values in the screen are low, and negative values occur.
This is an unselected part of the compounds tested.
A dash means the value is not listed here; it may have been measured.

SMILES	CoaBC	MtTrpRS
CC(C)Nc1ncnc2c1CCN(C(=O)NCc1cccnc1)CC2	-4.139%	-1.401%
COc1cccc(OC)c1CN1CC(O)CN(S(C)(=O)=O)CC1=O (configuration not stated)	-1.211%	-
Cc1nsc(N2CCN(CC(=O)NCc3cccnc3)CC2)n1	-1.952%	9.934%
Cc1cc(CNC(=O)c2cc(NC(=O)C(C)C)ccc2Cl)no1	-2.826%	-2.053%
CC(C(=O)Nc1ccc(N2CCOCC2)nc1)n1cncn1 (configuration not stated)	14.47%	17.85%
COc1ncccc1CN1C[C@@H]2COC[C@]2(COc2cccnc2)C1	1.754%	2.213%
Cc1cc(N2CCC3(CCCN(CCO)C3=O)C2)nc2cc(Cl)ccc12 (configuration not stated)	6.399%	4.744%
CCN(CC)C1CCN(C(=O)Nc2cc(F)c(OC)c(F)c2)C1 (configuration not stated)	1.84%	-0.7401%
COCC1CN(CC2CC2)Cc2nn(CC3CC3)cc21 (configuration not stated)	0.2028%	-1.146%
CCN(CC)C(=O)[C@@H]1C[C@H](NC(=O)c2ccn(C(C)(C)C)c2)CN1C	-3.606%	5.936%
Cc1cc(C)n(CC2CCCN2C(=O)Cc2c(C)nn(C)c2C)n1 (configuration not stated)	-5.704%	-2.119%
O=C(c1cccc2cc[nH]c12)N1CCC2(CCOC2)C1 (configuration not stated)	-3.382%	-1.818%
c1ncn(CC2CN(Cc3ccc4c(c3)OCCO4)CCO2)n1 (configuration not stated)	3.15%	-6.877%
Cc1nccc(C(=O)NC(COCC(C)C)c2ccco2)n1 (configuration not stated)	-5.937%	1.836%
COc1cccc(C2C3=C(COC3=O)Nc3[nH]nc(C)c32)c1OC (configuration not stated)	8.779%	2.462%
NC(=O)c1cccc(OCCC(=O)NC2CCc3c(F)cccc32)c1 (configuration not stated)	-	1.445%
NC(=O)CSc1ccccc1NC(=O)C1CCCCC1	6.624%	1.237%
CCN(CC)C(CNC(=O)c1ccc(S(C)(=O)=O)cc1)c1ccco1 (configuration not stated)	0.6211%	-0.3752%
Cc1ncc(CN(C)C2CCCN(Cc3noc(C4CC4)n3)C2)s1 (configuration not stated)	1.596%	-3.774%
CCOC[C@H]1CC[C@H]2[C@H](CCN2C(=O)c2ccncc2F)O1	-2.643%	3.018%
COCCN1CCC2(CCC(=O)N2Cc2csc(C)n2)CC1	-24.29%	-6.826%
Cc1ccc2c(c1)SCC(=O)N2CC(=O)N1CCCC1c1cc(C)no1 (configuration not stated)	1.952%	10.87%
CCC(NS(C)(=O)=O)c1ccccc1OC (configuration not stated)	2.073%	0.2649%
COc1c(CNC2CCc3c(Cl)cccc32)c(C)nn1C (configuration not stated)	5.357%	4.618%
Cn1cc(NC(=O)N2CCC(CN3CCCC3)CC2)ccc1=O	1.554%	0.8166%
O=C(NC1CCS(=O)(=O)C1)c1ccc(-c2ccc(F)cc2)s1 (configuration not stated)	0.1972%	0.6463%
CC(=O)N(Cc1noc(C)n1)C1CCN(CC2CCCC2)C1 (configuration not stated)	1.139%	-2.447%
CN(C)CCO[C@H]1CN(Cc2ccc3c(c2)OCO3)[C@@H]2COC[C@H]12	-2.606%	2.278%
O=C(c1cncc(N2CCC3(CC2)NCCNC3=O)n1)N1CCCCC1	-20.77%	-1.952%
CC(C)(CNC(=O)Nc1ccc(S(=O)(=O)C(F)F)cc1)N1CCOCC1	8.058%	-6.762%
CCN(C(=O)CN1CCC(c2ccccc2)C1)C1CC1 (configuration not stated)	4.781%	-2.006%
COc1ccc(C(N)=O)cc1NCc1ncc(-c2cccs2)o1	3.201%	3.728%
O=C(CCn1cccn1)NCCOc1ccc2c(c1)OCO2	7.443%	2.271%
CN1CCN(C(=O)c2cc3sccc3n2Cc2ccccc2)CC1	2.594%	3.387%
CCc1nc(N)nc(N2CCCC3(CCOCC3)C2)c1C	4.575%	-10.1%
CC(=O)N1[C@H](CN(C)C)C[C@@H]2CN(C(=O)c3ccno3)CC[C@@H]21	4.762%	4.942%
CCc1cnc(N)nc1NCCCn1nc(C)nc1C	6.21%	-6.367%
COc1ccccc1C(O)CNC(=O)Nc1ncccc1C (configuration not stated)	1.542%	0.236%
c1ccc2sc(N3CCCC(Cn4cncn4)C3)nc2c1 (configuration not stated)	3.049%	4.106%
Cc1ccccc1CS(=O)(=O)CC(=O)NCc1ccccc1F	6.343%	4.555%
Cc1nc(CN2CCN(C(=O)CCc3cccnc3)CC2)no1	2.575%	-3.254%
Cc1noc(C)c1C(=O)NCC(O)c1ccc(F)cc1F (configuration not stated)	-6.745%	0.6803%
CCCc1noc2ncc(C(=O)N3CCCC3c3cnn(C)c3)cc12 (configuration not stated)	12.5%	1.168%
CC(O)c1cccc(N2CCC3(CCC(=O)N(C4CCCC4)C3)CC2)n1 (configuration not stated)	7.438%	3.084%
Cn1c(C(=O)N2CCC(C3OCCO3)CC2)c(Cl)c2ccccc21	-1.873%	-0.7819%
Cn1ccc(-c2cc(C(=O)N3CCOCC3)c3ccccn23)n1	6.17%	-4.272%
COc1ccc(F)cc1C(C)NC(=O)Cn1ccc(=O)n(C)c1=O (configuration not stated)	1.054%	4.182%
CC(NC(=O)c1cccc(CN2CCN(C)CC2)c1)c1nccs1 (configuration not stated)	0.9938%	1.486%
O=C(CCn1cncn1)N1CC[C@@H](c2ccc3ccccc3c2)[C@H](O)C1	6.318%	-6.858%
CSC(C)C(=O)NCCC(=O)N1CCN(c2ccccn2)CC1 (configuration not stated)	2.527%	0.8804%
c1cnnc(N2CCCC2CNCc2nnc(C3CC3)o2)c1 (configuration not stated)	4.727%	-1.212%
O=C(CCNC(=O)C1CCCC1)NCc1ccccc1Cn1cncn1	1.169%	0.8772%
CN(Cc1cccc(O)c1)C(=O)c1ccc(CCC(C)(C)O)cc1	-1.279%	-3.937%
O=C(c1cnc(-c2ccco2)s1)N1CCCCC1Cn1cccn1 (configuration not stated)	7.329%	-5.253%
COCC(O)CNC(=O)Nc1c(F)cc(F)cc1-c1ccccc1 (configuration not stated)	3.148%	-1.961%
CCOc1cccnc1C(=O)N1CCC(c2ccccc2OC)C1 (configuration not stated)	9.234%	3.838%
CC(=O)N1CCCC1c1nc(C)cc(-c2ccc(F)cc2)n1 (configuration not stated)	-0.2451%	-
CCOC(C)C(=O)N(C)C1CCN(c2ccc(OC)cc2)CC1 (configuration not stated)	-5.797%	-1.455%
COc1ccc(F)cc1C(=O)N1C[C@H]2CC[C@@H]1CN(c1ncccn1)C2	3.498%	0.2174%
CNC(=O)C(C)(C)N1CCC[C@H]1C(=O)NCCN1CCCC1	6.546%	3.389%
CC(=O)N1CCCC(C(=O)NCCOc2cc(C)cc(C)c2)C1 (configuration not stated)	-3.345%	13.34%
N#Cc1ccc(CS(=O)(=O)NC(=O)c2ccc3c(c2)COC3)cc1	-0.813%	0.9166%
CC(C)=CCN(C)C1CCCN(Cc2noc(C)n2)C1 (configuration not stated)	1.012%	1.458%
COCC(=O)N1CCC(c2nccnc2Oc2cccnc2C)CC1	-0.1309%	-3.417%
CCc1cc(CNC(=O)c2cc(NC(=O)C(C)C)ccc2Cl)[nH]n1	-1.106%	0.5747%
O=c1c2sccc2nc2n1CCN(Cc1ccccc1C(F)(F)F)CC2	0.1239%	-

Some entries from above, unchanged:

With O=C(c1cnc(-c2ccco2)s1)N1CCCCC1Cn1cccn1 (configuration not stated) the screen gave CoaBC: 7.329%; MtTrpRS: -5.253%.
With CCCc1noc2ncc(C(=O)N3CCCC3c3cnn(C)c3)cc12 (configuration not stated) the screen gave CoaBC: 12.5%; MtTrpRS: 1.168%.
With Cn1c(C(=O)N2CCC(C3OCCO3)CC2)c(Cl)c2ccccc21 the screen gave CoaBC: -1.873%; MtTrpRS: -0.7819%.
With COc1c(CNC2CCc3c(Cl)cccc32)c(C)nn1C (configuration not stated) the screen gave CoaBC: 5.357%; MtTrpRS: 4.618%.
With COc1ccc(F)cc1C(C)NC(=O)Cn1ccc(=O)n(C)c1=O (configuration not stated) the screen gave CoaBC: 1.054%; MtTrpRS: 4.182%.
With O=C(CCNC(=O)C1CCCC1)NCc1ccccc1Cn1cncn1 the screen gave CoaBC: 1.169%; MtTrpRS: 0.8772%.
With COc1cccc(C2C3=C(COC3=O)Nc3[nH]nc(C)c32)c1OC (configuration not stated) the screen gave CoaBC: 8.779%; MtTrpRS: 2.462%.